From patent publication US20070135383A1, “Phospholipase inhibitors, including multi-valent phospholipase inhibitors, and use thereof, including as lumen-localized phospholipase inhibitors” (priority 2005, published 2007)

Test: in vitro
Conditions: human, Caco-2

CC(C)NCC(O)COc1cccc2ccccc12 (stereo not shown) [Propranolol]
Papp A→B at 6 hr, 50 ug/ml: ~13.2 ×10⁻⁶ cm/s
